Assay results as given in PMC6095836.
These are yes or no findings as the source states them, for the method shown. In cells and extracts the contact can be indirect. A yes stands for co-enrichment or nearness to the bait. Other partners may have been found.

Chains of the proteins cited; added tags and fusions are not shown. Lines headed by an entry give the natural chain unless they say otherwise; changes in a name come on top.
UniProt P03372: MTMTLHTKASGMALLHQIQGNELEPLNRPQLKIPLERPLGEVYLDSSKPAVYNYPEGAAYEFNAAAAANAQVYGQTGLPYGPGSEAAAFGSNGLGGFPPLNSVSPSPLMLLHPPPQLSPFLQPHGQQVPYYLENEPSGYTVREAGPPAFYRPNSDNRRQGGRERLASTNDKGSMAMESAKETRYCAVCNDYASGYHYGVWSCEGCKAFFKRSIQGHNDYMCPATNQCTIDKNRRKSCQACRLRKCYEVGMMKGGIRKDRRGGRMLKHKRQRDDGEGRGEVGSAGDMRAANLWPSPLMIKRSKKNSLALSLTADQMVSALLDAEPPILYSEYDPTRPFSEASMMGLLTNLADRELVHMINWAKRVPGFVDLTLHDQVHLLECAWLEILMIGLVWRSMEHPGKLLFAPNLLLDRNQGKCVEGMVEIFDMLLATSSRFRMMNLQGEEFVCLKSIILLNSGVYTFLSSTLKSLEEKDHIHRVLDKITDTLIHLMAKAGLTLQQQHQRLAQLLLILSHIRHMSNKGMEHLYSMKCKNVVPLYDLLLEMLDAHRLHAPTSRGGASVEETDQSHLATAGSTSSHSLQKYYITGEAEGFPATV
UniProt Q92793: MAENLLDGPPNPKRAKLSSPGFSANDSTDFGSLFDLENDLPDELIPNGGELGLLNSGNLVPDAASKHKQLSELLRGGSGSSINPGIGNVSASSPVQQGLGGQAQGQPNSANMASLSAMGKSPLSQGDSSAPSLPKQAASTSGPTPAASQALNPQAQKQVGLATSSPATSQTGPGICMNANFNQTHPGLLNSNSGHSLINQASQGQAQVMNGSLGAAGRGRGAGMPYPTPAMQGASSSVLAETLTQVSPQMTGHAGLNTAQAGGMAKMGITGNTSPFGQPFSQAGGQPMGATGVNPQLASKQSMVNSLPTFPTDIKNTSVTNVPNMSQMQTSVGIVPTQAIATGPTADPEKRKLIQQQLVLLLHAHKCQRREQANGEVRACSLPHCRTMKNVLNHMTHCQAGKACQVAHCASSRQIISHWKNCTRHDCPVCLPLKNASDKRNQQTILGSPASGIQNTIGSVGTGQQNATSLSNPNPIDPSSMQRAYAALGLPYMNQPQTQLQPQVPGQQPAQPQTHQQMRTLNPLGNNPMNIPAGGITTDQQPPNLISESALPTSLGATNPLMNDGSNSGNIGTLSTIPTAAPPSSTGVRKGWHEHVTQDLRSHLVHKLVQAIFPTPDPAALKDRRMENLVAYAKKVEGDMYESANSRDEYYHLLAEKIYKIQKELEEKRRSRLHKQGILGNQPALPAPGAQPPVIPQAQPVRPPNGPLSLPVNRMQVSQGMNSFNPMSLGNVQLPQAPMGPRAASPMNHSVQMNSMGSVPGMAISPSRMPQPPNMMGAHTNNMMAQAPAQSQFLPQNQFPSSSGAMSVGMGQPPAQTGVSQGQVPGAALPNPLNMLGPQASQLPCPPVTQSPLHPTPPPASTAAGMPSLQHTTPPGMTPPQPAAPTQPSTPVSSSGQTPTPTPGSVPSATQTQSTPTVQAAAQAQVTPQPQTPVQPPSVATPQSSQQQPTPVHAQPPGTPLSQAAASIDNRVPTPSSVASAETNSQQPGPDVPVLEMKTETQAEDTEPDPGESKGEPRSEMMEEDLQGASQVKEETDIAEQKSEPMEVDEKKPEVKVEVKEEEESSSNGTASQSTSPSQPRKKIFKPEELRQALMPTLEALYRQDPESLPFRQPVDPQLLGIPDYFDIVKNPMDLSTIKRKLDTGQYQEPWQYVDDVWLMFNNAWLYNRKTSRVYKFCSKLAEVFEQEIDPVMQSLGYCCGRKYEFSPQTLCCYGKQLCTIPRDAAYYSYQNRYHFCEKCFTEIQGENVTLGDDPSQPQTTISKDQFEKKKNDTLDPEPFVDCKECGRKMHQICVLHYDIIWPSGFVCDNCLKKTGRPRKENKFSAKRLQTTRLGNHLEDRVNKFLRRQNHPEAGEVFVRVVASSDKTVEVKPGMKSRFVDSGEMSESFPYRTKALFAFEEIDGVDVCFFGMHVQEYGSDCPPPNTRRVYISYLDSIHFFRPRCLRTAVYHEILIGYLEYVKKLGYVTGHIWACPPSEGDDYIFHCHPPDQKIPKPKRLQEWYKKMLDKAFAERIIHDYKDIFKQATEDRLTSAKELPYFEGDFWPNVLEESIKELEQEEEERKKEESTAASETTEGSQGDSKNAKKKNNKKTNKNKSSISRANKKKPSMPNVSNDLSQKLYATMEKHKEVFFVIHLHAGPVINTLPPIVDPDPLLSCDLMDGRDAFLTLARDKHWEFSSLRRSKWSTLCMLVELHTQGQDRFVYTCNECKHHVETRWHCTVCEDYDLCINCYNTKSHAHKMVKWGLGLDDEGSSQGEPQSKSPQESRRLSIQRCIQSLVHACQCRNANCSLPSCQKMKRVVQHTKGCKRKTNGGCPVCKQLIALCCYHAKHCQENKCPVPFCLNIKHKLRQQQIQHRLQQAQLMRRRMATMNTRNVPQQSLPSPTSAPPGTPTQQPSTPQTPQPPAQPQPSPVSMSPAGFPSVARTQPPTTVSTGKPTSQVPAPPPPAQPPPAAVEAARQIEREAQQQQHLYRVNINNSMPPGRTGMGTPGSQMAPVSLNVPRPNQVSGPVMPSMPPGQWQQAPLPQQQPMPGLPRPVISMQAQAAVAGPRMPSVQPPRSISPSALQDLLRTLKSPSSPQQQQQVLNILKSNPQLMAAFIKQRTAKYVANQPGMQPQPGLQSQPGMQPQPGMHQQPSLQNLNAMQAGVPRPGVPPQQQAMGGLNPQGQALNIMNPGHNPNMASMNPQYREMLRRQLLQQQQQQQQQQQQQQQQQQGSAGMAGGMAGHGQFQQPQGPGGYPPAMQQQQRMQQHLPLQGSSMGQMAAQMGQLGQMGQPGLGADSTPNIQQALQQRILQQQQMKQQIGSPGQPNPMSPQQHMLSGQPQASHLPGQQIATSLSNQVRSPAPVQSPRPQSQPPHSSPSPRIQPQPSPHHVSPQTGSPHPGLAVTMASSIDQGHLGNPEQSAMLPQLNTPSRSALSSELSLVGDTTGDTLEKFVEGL
UniProt Q09472: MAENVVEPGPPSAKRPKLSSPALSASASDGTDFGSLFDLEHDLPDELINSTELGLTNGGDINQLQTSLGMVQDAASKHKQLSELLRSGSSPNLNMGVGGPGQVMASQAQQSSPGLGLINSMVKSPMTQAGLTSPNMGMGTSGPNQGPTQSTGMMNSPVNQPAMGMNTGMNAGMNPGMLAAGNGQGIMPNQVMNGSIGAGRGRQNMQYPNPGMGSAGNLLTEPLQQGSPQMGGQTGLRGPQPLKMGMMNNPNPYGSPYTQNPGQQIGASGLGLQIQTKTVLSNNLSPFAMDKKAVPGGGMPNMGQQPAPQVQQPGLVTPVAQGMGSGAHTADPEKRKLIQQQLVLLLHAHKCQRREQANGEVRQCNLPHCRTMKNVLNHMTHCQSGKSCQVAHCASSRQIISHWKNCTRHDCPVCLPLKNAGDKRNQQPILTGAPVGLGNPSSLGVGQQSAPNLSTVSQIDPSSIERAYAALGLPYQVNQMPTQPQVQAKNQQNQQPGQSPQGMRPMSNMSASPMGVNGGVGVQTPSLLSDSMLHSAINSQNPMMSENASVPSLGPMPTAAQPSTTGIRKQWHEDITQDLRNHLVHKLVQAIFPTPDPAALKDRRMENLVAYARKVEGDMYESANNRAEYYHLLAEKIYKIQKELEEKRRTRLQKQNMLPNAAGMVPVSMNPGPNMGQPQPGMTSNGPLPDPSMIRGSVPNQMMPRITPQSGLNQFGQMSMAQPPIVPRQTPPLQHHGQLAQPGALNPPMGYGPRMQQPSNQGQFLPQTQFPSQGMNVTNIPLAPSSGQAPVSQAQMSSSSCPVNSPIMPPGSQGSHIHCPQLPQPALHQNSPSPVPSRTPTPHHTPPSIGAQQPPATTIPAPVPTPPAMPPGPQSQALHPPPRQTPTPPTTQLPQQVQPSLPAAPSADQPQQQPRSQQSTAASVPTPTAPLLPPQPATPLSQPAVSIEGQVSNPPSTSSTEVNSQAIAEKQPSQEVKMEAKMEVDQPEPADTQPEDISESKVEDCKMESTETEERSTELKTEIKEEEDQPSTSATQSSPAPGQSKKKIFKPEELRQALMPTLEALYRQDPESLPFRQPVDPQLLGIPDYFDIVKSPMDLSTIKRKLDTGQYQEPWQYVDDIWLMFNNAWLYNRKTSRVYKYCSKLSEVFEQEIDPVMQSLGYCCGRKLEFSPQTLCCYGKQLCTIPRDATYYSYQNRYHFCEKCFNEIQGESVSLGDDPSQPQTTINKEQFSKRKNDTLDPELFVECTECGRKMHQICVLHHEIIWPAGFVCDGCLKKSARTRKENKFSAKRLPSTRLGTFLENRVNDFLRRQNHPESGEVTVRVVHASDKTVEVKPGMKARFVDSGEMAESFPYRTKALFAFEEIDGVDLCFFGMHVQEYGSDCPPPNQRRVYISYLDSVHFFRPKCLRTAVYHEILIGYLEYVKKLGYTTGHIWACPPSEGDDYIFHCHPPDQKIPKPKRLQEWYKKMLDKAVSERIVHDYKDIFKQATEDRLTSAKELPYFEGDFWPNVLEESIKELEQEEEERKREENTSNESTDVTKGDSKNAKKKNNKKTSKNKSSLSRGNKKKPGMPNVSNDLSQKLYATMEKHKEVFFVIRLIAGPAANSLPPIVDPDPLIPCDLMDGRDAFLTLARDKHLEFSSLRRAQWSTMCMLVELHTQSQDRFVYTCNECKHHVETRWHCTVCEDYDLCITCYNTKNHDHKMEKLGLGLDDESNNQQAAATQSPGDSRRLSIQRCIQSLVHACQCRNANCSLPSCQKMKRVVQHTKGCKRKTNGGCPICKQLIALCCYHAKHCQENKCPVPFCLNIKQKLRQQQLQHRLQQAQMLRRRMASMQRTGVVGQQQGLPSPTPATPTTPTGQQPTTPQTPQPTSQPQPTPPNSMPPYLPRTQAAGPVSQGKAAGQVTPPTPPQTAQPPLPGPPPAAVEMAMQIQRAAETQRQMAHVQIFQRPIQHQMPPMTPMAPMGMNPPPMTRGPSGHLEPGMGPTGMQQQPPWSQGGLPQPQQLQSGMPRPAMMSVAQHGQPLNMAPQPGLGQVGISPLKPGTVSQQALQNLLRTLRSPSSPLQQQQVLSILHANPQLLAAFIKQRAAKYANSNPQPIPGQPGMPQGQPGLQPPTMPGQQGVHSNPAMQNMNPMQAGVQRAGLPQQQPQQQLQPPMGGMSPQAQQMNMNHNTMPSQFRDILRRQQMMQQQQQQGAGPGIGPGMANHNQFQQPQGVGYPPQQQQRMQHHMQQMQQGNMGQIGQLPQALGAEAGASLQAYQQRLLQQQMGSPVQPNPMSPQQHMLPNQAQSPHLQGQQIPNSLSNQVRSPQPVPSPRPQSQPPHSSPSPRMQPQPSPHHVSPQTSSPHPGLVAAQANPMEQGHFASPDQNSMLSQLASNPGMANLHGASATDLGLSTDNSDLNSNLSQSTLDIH

Molecular target: Y537S ERα (recombinant, purified) (UniProt P03372)
Assay: affinity purification with mass spectrometry; ERE DNA pulldown: 1 ug purified receptor, 2-2.5 mg HeLa S3 nuclear extract, 15 pmol 4xERE-E4 DNA on Dynabeads M-280 streptavidin; no E2; label-free quantitative MS, normalised to ESR1 N-terminal peptides; only the target purified

Row | binding | Substance
1 | binds | CBP, endogenous (from UniProt Q92793 1-2442)
2 | binds | p300, endogenous (from UniProt Q09472 1-2414)
